Source: article PMC11850942
These are yes or no findings as the source states them, for the method shown. In cells and extracts the contact can be indirect. A yes stands for co-enrichment or nearness to the bait. Other partners may have been found.

Amino acid sequences for entries named in this document (tags omitted).
UniProt Q04206: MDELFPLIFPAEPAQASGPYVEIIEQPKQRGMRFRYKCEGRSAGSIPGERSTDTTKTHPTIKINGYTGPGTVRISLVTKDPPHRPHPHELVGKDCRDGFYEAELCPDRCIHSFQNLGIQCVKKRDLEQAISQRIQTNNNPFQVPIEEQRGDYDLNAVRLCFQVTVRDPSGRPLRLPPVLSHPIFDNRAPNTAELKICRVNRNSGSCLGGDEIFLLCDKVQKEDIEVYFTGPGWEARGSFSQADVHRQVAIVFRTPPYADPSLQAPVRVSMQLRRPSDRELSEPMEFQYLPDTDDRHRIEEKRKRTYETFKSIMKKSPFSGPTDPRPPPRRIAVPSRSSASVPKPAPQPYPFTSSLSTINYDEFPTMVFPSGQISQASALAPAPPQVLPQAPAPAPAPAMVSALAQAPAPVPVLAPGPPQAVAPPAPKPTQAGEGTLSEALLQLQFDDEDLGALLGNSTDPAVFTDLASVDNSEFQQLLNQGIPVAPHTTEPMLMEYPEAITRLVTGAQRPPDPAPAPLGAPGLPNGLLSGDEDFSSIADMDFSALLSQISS
UniProt Q13950: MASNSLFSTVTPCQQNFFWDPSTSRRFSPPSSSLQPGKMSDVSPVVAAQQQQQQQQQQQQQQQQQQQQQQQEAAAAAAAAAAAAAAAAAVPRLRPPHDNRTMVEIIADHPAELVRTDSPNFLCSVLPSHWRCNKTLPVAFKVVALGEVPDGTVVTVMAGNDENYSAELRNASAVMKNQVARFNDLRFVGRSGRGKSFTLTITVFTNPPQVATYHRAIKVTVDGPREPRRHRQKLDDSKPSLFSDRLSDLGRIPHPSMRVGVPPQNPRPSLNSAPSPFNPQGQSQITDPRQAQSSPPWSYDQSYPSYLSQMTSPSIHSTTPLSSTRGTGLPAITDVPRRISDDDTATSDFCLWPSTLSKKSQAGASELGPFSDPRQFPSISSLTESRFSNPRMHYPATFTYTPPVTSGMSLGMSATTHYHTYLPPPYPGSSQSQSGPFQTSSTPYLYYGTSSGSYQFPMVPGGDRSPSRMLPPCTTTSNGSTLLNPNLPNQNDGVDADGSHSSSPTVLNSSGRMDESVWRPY
UniProt P62834: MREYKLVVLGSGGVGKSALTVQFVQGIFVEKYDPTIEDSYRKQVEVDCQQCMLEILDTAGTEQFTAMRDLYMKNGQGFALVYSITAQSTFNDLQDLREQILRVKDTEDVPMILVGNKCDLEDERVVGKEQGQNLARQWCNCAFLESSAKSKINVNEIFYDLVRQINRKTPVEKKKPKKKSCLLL
UniProt O15525: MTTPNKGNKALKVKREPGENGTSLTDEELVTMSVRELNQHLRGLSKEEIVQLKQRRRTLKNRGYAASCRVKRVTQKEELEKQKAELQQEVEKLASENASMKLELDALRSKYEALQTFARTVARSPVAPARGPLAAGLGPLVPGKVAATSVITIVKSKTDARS
UniProt Q92908: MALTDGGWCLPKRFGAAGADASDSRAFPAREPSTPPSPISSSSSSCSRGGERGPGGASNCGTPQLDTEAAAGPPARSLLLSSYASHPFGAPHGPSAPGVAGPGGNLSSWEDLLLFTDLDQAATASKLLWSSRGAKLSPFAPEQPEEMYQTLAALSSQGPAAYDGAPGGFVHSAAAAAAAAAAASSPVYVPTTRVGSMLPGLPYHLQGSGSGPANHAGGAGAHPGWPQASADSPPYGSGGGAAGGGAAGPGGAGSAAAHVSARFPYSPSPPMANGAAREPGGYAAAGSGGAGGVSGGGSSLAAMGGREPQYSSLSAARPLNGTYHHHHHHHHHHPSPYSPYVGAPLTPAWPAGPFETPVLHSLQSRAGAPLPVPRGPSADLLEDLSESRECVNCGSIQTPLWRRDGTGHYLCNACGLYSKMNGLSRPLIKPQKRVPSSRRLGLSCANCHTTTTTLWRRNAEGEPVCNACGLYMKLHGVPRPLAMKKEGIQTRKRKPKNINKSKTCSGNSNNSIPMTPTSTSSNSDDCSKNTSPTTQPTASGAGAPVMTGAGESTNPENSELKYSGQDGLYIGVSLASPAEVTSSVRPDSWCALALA
UniProt P28360: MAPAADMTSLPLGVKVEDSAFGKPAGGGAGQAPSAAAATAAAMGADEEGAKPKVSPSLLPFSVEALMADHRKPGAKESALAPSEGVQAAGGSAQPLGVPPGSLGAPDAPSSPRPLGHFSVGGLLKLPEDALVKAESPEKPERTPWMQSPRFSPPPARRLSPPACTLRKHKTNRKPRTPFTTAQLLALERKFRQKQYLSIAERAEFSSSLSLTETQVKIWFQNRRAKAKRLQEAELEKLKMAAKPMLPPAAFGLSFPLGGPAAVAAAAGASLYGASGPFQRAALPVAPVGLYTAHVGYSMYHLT
UniProt Q15532: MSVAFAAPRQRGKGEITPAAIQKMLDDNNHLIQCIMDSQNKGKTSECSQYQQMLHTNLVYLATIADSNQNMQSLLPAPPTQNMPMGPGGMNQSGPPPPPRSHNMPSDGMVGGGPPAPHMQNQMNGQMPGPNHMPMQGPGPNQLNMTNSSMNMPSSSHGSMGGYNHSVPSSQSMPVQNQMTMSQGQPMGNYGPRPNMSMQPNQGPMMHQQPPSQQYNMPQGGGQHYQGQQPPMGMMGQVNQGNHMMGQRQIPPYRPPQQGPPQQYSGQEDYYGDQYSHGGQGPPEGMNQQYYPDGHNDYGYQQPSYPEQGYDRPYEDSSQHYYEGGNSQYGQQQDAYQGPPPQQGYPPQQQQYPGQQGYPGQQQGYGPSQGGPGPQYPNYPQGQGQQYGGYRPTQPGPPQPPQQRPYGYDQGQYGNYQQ
UniProt O95409: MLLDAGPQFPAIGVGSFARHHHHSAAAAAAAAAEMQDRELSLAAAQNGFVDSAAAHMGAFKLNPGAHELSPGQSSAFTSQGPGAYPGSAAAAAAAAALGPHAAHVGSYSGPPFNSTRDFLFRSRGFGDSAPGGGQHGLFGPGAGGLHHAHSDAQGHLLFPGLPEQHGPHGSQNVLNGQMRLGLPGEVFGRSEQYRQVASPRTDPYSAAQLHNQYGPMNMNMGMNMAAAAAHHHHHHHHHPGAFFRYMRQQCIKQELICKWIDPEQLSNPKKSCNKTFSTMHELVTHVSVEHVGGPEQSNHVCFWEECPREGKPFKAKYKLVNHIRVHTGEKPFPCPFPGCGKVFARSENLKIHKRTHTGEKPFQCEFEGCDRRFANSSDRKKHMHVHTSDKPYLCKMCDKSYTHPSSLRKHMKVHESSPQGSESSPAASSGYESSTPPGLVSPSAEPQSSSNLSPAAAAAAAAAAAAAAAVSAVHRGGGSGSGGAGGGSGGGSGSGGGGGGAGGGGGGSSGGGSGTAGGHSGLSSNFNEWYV
UniProt P61224: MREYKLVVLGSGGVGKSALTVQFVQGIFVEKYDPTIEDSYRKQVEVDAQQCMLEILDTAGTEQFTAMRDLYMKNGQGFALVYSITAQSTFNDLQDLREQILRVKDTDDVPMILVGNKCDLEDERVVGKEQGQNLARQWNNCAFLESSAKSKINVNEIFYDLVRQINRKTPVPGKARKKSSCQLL

B1: ATXN1L (protein, UniProt P0C7T5 1-689)
chain: MKPVHERSQECLPPKKRDLPVTSEDMGRTTSCSTNHTPSSDASEWSRGVVVAGQSQAGARVSLGGDGAEAITGLTVDQYGMLYKVAVPPATFSPTGLPSVVNMSPLPPTFNVASSLIQHPGIHYPPLHYAQLPSTSLQFIGSPYSLPYAVPPNFLPSPLLSPSANLATSHLPHFVPYASLLAEGATPPPQAPSPAHSFNKAPSATSPSGQLPHHSSTQPLDLAPGRMPIYYQMSRLPAGYTLHETPPAGASPVLTPQESQSALEAAAANGGQRPRERNLVRRESEALDSPNSKGEGQGLVPVVECVVDGQLFSGSQTPRVEVAAPAHRGTPDTDLEVQRVVGALASQDYRVVAAQRKEEPSPLNLSHHTPDHQGEGRGSARNPAELAEKSQARGFYPQSHQEPVKHRPLPKAMVVANGNLVPTGTDSGLLPVGSEILVASSLDVQARATFPDKEPTPPPITSSHLPSHFMKGAIIQLATGELKRVEDLQTQDFVRSAEVSGGLKIDSSTVVDIQESQWPGFVMLHFVVGEQQSKVSIEVPPEHPFFVYGQGWSSCSPGRTTQLFSLPCHRLQVGDVCISISLQSLNSNSVSQASCAPPSQLGPPRERPERTVLGSRELCDSEGKSQPAGEGSRVVEPSQPESGAQACWPAPSFQRYSMQGEEARAALLRPSFIPQEVKLSIEGRSNAGK
B2: CRTC2 (protein, UniProt Q53ET0 1-693)
chain: MATSGANGPGSATASASNPRKFSEKIALQKQRQAEETAAFEEVMMDIGSTRLQAQKLRLAYTRSSHYGGSLPNVNQIGSGLAEFQSPLHSPLDSSRSTRHHGLVERVQRDPRRMVSPLRRYTRHIDSSPYSPAYLSPPPESSWRRTMAWGNFPAEKGQLFRLPSALNRTSSDSALHTSVMNPSPQDTYPGPTPPSILPSRRGGILDGEMDPKVPAIEENLLDDKHLLKPWDAKKLSSSSSRPRSCEVPGINIFPSPDQPANVPVLPPAMNTGGSLPDLTNLHFPPPLPTPLDPEETAYPSLSGGNSTSNLTHTMTHLGISRGMGLGPGYDAPGLHSPLSHPSLQSSLSNPNLQASLSSPQPQLQGSHSHPSLPASSLARHVLPTTSLGHPSLSAPALSSSSSSSSTSSPVLGAPSYPASTPGASPHHRRVPLSPLSLLAGPADARRSQQQLPKQFSPTMSPTLSSITQGVPLDTSKLSTDQRLPPYPYSSPSLVLPTQPHTPKSLQQPGLPSQSCSVQSSGGQPPGRQSHYGTPYPPGPSGHGQQSYHRPMSDFNLGNLEQFSMESPSASLVLDPPGFSEGPGFLGGEGPMGGPQDPHTFNHQNLTHCSRHGSGPNIILTGDSSPGFSKEIAAALAGVPGFEVSAAGLELGLGLEDELRMEPLGLEGLNMLSDPCALLPDPAVEESFRSDRLQ
B3: EBF1 (protein, UniProt Q9UH73 1-591)
chain: MFGIQESIQRSGSSMKEEPLGSGMNAVRTWMQGAGVLDANTAAQSGVGLARAHFEKQPPSNLRKSNFFHFVLALYDRQGQPVEIERTAFVGFVEKEKEANSEKTNNGIHYRLQLLYSNGIRTEQDFYVRLIDSMTKQAIVYEGQDKNPEMCRVLLTHEIMCSRCCDKKSCGNRNETPSDPVIIDRFFLKFFLKCNQNCLKNAGNPRDMRRFQVVVSTTVNVDGHVLAVSDNMFVHNNSKHGRRARRLDPSEGTPSYLEHATPCIKAISPSEGWTTGGATVIIIGDNFFDGLQVIFGTMLVWSELITPHAIRVQTPPRHIPGVVEVTLSYKSKQFCKGTPGRFIYTALNEPTIDYGFQRLQKVIPRHPGDPERLPKEVILKRAADLVEALYGMPHNNQEIILKRAADIAEALYSVPRNHNQLPALANTSVHAGMMGVNSFSGQLAVNVSEASQATNQGFTRNSSSVSPHGYVPSTTPQQTNYNSVTTSMNGYGSAAMSNLGGSPTFLNGSAANSPYAIVPSSPTMASSTSLPSNCSSSSGIFSFSPANMVSAVKQKSAFAPVVRPQTSPPPTCTSTNGNSLQAISGMIVPPM
B4: HMG20B (protein, UniProt Q9P0W2 1-317)
chain: MSHGPKQPGAAAAPAGGKAPGQHGGFVVTVKQERGEGPRAGEKGSHEEEPVKKRGWPKGKKRKKILPNGPKAPVTGYVRFLNERREQIRTRHPDLPFPEITKMLGAEWSKLQPTEKQRYLDEAEREKQQYMKELRAYQQSEAYKMCTEKIQEKKIKKEDSSSGLMNTLLNGHKGGDCDGFSTFDVPIFTEEFLDQNKAREAELRRLRKMNVAFEEQNAVLQRHTQSMSSARERLEQELALEERRTLALQQQLQAVRQALTASFASLPVPGTGETPTLGTLDFYMARLHGAIERDPAQHEKLIVRIKEILAQVASEHL
B5: HOMEZ (protein, UniProt Q8IX15 1-550)
chain: MVRGWEPPPGLDCAISEGHKSEGTMPPNKEASGLSSSPAGLICLPPISEELQLVWTQAAQTSELDSNEHLLKTFSYFPYPSLADIALLCLRYGLQMEKVKTWFMAQRLRCGISWSSEEIEETRARVVYRRDQLHFKSLLSFTHHAGRPPEEVPPPPVPAPEQVGIGIGPPTLSKPTQTKGLKVEPEEPSQMPPLPQSHQKLKESLMTPGSGAFPYQSDFWQHLQSSGLSKEQAGRGPNQSHGIGTASWNHSTTVPQPQARDKPPPIALIASSCKEESASSVTPSSSSTSSSFQVLANGATAASKPLQPLGCVPQSVSPSEQALPPHLEPAWPQGLRHNSVPGRVGPTEYLSPDMQRQRKTKRKTKEQLAILKSFFLQCQWARREDYQKLEQITGLPRPEIIQWFGDTRYALKHGQLKWFRDNAVPGAPSFQDPAIPTPPPSTRSLNERAETPPLPIPPPPPDIQPLERYWAAHQQLRETDIPQLSQASRLSTQQVLDWFDSRLPQPAEVVVCLDEEEEEEEEELPEDDEEEEEEEEEDDDDDDDDVIIQD
B6: ISL1 (protein, UniProt P61371 1-349)
chain: MGDMGDPPKKKRLISLCVGCGNQIHDQYILRVSPDLEWHAACLKCAECNQYLDESCTCFVRDGKTYCKRDYIRLYGIKCAKCSIGFSKNDFVMRARSKVYHIECFRCVACSRQLIPGDEFALREDGLFCRADHDVVERASLGAGDPLSPLHPARPLQMAAEPISARQPALRPHVHKQPEKTTRVRTVLNEKQLHTLRTCYAANPRPDALMKEQLVEMTGLSPRVIRVWFQNKRCKDKKRSIMMKQLQQQQPNDKTNIQGMTGTPMVAASPERHDGGLQANPVEVQSYQPPWKVLSDFALQSDIDQPAFQQLVNFSEGGPGSNSTGSEVASMSSQLPDTPNSMVASPIEA
B7: MAMLD1 (protein, UniProt Q13495 1-774)
chain: MDDWKSRLVIKSMLPHFAMVGNRQEPRKLQESGKKPSWMEEEDLSFLYKSSPGRKHQGTVKRRQEEDHFQFPDMADGGYPNKIKRPCLEDVTLAMGPGAHPSTACAELQVPPLTINPSPAAMGVAGQSLLLENNPMNGNIMGSPFVVPQTTEVGLKGPTVPYYEKINSVPAVDQELQELLEELTKIQDPSPNELDLEKILGTKPEEPLVLDHPQATLSTTPKPSVQMSHLESLASSKEFASSCSQVTGMSLQIPSSSTGISYSIPSTSKQIVSPSSSMAQSKSQVQAMLPVALPPLPVPQWHHAHQLKALAASKQGSATKQQGPTPSWSGLPPPGLSPPYRPVPSPHPPPLPLPPPPPPFSPQSLMVSCMSSNTLSGSTLRGSPNALLSSMTSSSNAALGPAMPYAPEKLPSPALTQQPQFGPQSSILANLMSSTIKTPQGHLMSALPASNPGPSPPYRPEKLSSPGLPQQSFTPQCSLIRSLTPTSNLLSQQQQQQQQQQQANVIFKPISSNSSKTLSMIMQQGMASSSPGATEPFTFGNTKPLSHFVSEPGPQKMPSMPTTSRQPSLLHYLQQPTPTQASSATASSTATATLQLQQQQQQQQQQPDHSSFLLQQMMQQPQRFQRSVASDSMPALPRQGCCHLFAWTSAASSVKPQHQHGNSFTSRQDPQPGDVSPSNITHVDKACKLGEARHPQVSLGRQPPSCQALGSESFLPGSSFAHELARVTSSYSTSEAAPWGSWDPKAWRQVPAPLLPSCDATARGTEIRSYGNDP
B8: NFYC (protein, UniProt Q13952 1-458)
chain: MSTEGGFGGTSSSDAQQSLQSFWPRVMEEIRNLTVKDFRVQELPLARIKKIMKLDEDVKMISAEAPVLFAKAAQIFITELTLRAWIHTEDNKRRTLQRNDIAMAITKFDQFDFLIDIVPRDELKPPKRQEEVRQSVTPAEPVQYYFTLAQQPTAVQVQGQQQGQQTTSSTTTIQPGQIIIAQPQQGQTTPVTMQVGEGQQVQIVQAQPQGQAQQAQSGTGQTMQVMQQIITNTGEIQQIPVQLNAGQLQYIRLAQPVSGTQVVQGQIQTLATNAQQGQRNASQGKPRRCLKETLQITQTEVQQGQQQFSQFTDGQRNSVQQARVSELTGEAEPREVKATGNSTPCTSSLPTTHPPSHRAGASCVCCSQPQQSSTSPPPSDALQWVVVEVSGTPNQLETHRELHAPLPGMTSLSPLHPSQQLYQIQQVTMPAGQDLAQPMFIQSANQPSDGQAPQVTGD
B9: PBX2 (protein, UniProt P40425 1-430)
chain: MDERLLGPPPPGGGRGGLGLVSGEPGGPGEPPGGGDPGGGSGGVPGGRGKQDIGDILQQIMTITDQSLDEAQAKKHALNCHRMKPALFSVLCEIKEKTGLSIRSSQEEEPVDPQLMRLDNMLLAEGVAGPEKGGGSAAAAAAAAASGGGVSPDNSIEHSDYRSKLAQIRHIYHSELEKYEQACNEFTTHVMNLLREQSRTRPVAPKEMERMVSIIHRKFSAIQMQLKQSTCEAVMILRSRFLDARRKRRNFSKQATEVLNEYFYSHLSNPYPSEEAKEELAKKCGITVSQVSNWFGNKRIRYKKNIGKFQEEANIYAVKTAVSVTQGGHSRTSSPTPPSSAGSGGSFNLSGSGDMFLGMPGLNGDSYSASQVESLRHSMGPGGYGDNLGGGQMYSPREMRANGSWQEAVTPSSVTSPTEGPGSVHSDTSN

biological target: p65(wt)-HA-miniTurbo (human) (UniProt Q04206)

binding, binds:
RUNX2 (from UniProt Q13950 1-521)
RAP1A (from UniProt P62834 1-184)
MAFG (from UniProt O15525 1-162)
GATA6 (from UniProt Q92908 1-595)
MSX1 (from UniProt P28360 1-303)
SS18 (from UniProt Q15532 1-418)
ZIC2 (from UniProt O95409 1-532)
RAP1B (from UniProt P61224 1-184)
B1
B2
B3
B4
B5
B6
B7
B8
B9
